Test results reported in paper PMC6925243.
These are yes or no findings as the source states them, for the method shown. Binding seen in cells or lysates may run through a third protein. Some binding calls cover weakened binding; strength is not graded here. For part of these data: Sequences can lack the tags named with a protein.

Amino acid sequences for entries named in this document (tags omitted).
UniProt P00520: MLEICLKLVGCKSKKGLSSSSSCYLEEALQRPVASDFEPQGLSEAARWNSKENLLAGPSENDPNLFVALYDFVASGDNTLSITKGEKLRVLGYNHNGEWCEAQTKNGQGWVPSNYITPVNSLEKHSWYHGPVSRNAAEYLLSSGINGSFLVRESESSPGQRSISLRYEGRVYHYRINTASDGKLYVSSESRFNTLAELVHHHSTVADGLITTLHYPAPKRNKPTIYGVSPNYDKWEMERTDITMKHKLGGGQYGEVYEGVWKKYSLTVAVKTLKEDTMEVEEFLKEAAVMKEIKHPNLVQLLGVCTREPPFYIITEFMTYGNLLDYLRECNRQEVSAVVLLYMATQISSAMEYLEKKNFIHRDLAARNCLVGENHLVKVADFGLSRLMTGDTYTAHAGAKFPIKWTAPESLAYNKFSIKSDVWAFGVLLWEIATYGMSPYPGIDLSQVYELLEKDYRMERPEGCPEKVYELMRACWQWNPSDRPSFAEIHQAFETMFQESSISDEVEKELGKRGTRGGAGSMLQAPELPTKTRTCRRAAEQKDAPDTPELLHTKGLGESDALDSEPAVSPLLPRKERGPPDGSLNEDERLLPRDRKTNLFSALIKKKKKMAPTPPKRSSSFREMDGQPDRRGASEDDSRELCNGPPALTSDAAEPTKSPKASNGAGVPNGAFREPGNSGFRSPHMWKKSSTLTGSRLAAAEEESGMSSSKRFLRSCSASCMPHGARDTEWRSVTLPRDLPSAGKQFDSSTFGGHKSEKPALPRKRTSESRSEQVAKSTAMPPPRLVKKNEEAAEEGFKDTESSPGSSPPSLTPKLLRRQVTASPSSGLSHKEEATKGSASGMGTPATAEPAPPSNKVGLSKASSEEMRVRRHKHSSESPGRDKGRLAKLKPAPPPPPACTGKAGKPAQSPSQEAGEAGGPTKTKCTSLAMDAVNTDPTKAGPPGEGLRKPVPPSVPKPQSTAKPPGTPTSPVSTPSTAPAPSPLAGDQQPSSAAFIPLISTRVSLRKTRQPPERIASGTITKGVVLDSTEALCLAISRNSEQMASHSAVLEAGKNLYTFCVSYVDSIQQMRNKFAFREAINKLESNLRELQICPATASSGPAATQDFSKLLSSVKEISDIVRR
UniProt P00519: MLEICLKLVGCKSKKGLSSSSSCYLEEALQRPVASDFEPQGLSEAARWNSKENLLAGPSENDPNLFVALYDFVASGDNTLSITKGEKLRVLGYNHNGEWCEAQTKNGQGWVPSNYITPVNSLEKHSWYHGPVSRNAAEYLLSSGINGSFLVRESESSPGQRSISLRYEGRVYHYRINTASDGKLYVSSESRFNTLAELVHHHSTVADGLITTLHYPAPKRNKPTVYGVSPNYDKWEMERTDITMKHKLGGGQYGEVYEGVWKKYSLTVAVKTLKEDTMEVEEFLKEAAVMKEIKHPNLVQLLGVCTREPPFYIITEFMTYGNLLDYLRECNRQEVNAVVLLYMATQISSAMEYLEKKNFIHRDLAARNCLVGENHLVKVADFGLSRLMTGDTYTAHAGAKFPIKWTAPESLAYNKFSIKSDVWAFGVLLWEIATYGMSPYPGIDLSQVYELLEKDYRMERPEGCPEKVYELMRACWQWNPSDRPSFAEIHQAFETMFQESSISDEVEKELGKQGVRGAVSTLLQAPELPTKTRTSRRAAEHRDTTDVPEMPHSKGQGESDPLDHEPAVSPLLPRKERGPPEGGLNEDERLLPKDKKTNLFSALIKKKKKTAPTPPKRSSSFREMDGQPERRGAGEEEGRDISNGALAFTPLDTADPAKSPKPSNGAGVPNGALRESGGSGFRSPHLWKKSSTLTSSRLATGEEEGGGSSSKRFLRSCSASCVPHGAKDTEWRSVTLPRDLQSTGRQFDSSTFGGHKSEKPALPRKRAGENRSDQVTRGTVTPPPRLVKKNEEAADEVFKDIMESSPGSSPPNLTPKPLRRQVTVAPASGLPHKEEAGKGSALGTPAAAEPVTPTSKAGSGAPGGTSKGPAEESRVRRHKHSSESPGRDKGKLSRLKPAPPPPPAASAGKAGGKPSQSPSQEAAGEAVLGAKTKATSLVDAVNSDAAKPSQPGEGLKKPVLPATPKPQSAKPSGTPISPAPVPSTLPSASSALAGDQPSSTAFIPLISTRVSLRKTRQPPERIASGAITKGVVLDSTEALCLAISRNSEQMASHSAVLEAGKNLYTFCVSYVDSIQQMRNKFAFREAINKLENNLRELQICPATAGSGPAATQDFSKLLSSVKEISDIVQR

T1: GFP-FBP17 wild type (UniProt Q96RU3)
T1 sequence: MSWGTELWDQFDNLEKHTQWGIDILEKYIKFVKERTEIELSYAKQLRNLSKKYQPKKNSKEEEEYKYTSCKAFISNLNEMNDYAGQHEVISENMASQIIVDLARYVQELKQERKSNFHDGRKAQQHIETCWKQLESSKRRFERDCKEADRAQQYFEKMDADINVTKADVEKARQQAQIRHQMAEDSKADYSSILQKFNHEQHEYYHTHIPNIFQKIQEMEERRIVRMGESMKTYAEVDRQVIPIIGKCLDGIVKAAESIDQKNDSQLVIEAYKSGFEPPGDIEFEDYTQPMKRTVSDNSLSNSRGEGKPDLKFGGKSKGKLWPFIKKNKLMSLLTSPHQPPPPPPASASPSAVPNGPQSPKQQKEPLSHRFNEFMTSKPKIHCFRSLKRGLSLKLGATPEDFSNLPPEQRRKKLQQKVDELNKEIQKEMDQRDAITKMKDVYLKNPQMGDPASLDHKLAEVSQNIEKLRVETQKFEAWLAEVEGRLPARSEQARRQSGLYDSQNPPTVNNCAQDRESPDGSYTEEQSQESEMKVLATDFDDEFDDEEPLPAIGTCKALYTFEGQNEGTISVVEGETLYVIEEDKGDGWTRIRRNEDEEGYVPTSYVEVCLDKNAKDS


Columns and labels:
GFP-FBP17 wild type = molecular target: T1, GFP-FBP17 wild type; assay: co-IP; GFP-tagged FBP17 wild type or 3YE expressed in cells together with c-Myc-FBP17; GFP versions immunoprecipitated and bound c-Myc-FBP17 quantified
GFP-c-Abl = GFP-c-Abl (UniProt P00520); assay: co-IP; GFP-c-Abl (or GFP control) and Myc-FBP17 transfected into 293T cells; c-Abl immunoprecipitated with anti-GFP antibody; immunoblots of immunoprecipitates and whole-cell lysates
endogenous c-Abl = endogenous c-Abl (UniProt P00519); assay: co-IP; endogenous c-Abl immunoprecipitated, endogenous FBP17 identified in the IP by immunoblot; two control antibodies

Binder | binding (GFP-FBP17 wild type) | binding (GFP-c-Abl) | binding (endogenous c-Abl)
Myc-FBP17 (protein, UniProt Q96RU3 1-617) MSWGTELWDQFDNLEKHTQWGIDILEKYIKFVKERTEIELSYAKQLRNLSKKYQPKKNSKEEEEYKYTSCKAFISNLNEMNDYAGQHEVISENMASQIIVDLARYVQELKQERKSNFHDGRKAQQHIETCWKQLESSKRRFERDCKEADRAQQYFEKMDADINVTKADVEKARQQAQIRHQMAEDSKADYSSILQKFNHEQHEYYHTHIPNIFQKIQEMEERRIVRMGESMKTYAEVDRQVIPIIGKCLDGIVKAAESIDQKNDSQLVIEAYKSGFEPPGDIEFEDYTQPMKRTVSDNSLSNSRGEGKPDLKFGGKSKGKLWPFIKKNKLMSLLTSPHQPPPPPPASASPSAVPNGPQSPKQQKEPLSHRFNEFMTSKPKIHCFRSLKRGLSLKLGATPEDFSNLPPEQRRKKLQQKVDELNKEIQKEMDQRDAITKMKDVYLKNPQMGDPASLDHKLAEVSQNIEKLRVETQKFEAWLAEVEGRLPARSEQARRQSGLYDSQNPPTVNNCAQDRESPDGSYTEEQSQESEMKVLATDFDDEFDDEEPLPAIGTCKALYTFEGQNEGTISVVEGETLYVIEEDKGDGWTRIRRNEDEEGYVPTSYVEVCLDKNAKDS | binds | binds | 
endogenous FBP17 (protein, UniProt Q96RU3 1-617) MSWGTELWDQFDNLEKHTQWGIDILEKYIKFVKERTEIELSYAKQLRNLSKKYQPKKNSKEEEEYKYTSCKAFISNLNEMNDYAGQHEVISENMASQIIVDLARYVQELKQERKSNFHDGRKAQQHIETCWKQLESSKRRFERDCKEADRAQQYFEKMDADINVTKADVEKARQQAQIRHQMAEDSKADYSSILQKFNHEQHEYYHTHIPNIFQKIQEMEERRIVRMGESMKTYAEVDRQVIPIIGKCLDGIVKAAESIDQKNDSQLVIEAYKSGFEPPGDIEFEDYTQPMKRTVSDNSLSNSRGEGKPDLKFGGKSKGKLWPFIKKNKLMSLLTSPHQPPPPPPASASPSAVPNGPQSPKQQKEPLSHRFNEFMTSKPKIHCFRSLKRGLSLKLGATPEDFSNLPPEQRRKKLQQKVDELNKEIQKEMDQRDAITKMKDVYLKNPQMGDPASLDHKLAEVSQNIEKLRVETQKFEAWLAEVEGRLPARSEQARRQSGLYDSQNPPTVNNCAQDRESPDGSYTEEQSQESEMKVLATDFDDEFDDEEPLPAIGTCKALYTFEGQNEGTISVVEGETLYVIEEDKGDGWTRIRRNEDEEGYVPTSYVEVCLDKNAKDS |  |  | binds
